The supplement of paper PMC10849652
Some of the results follow.

Sequences of proteins named here, by UniProt entry; tags and fusion partners are left off. A change or cut given only in a name is not applied to a line headed by its entry.
UniProt P08603, whole entry, looked up: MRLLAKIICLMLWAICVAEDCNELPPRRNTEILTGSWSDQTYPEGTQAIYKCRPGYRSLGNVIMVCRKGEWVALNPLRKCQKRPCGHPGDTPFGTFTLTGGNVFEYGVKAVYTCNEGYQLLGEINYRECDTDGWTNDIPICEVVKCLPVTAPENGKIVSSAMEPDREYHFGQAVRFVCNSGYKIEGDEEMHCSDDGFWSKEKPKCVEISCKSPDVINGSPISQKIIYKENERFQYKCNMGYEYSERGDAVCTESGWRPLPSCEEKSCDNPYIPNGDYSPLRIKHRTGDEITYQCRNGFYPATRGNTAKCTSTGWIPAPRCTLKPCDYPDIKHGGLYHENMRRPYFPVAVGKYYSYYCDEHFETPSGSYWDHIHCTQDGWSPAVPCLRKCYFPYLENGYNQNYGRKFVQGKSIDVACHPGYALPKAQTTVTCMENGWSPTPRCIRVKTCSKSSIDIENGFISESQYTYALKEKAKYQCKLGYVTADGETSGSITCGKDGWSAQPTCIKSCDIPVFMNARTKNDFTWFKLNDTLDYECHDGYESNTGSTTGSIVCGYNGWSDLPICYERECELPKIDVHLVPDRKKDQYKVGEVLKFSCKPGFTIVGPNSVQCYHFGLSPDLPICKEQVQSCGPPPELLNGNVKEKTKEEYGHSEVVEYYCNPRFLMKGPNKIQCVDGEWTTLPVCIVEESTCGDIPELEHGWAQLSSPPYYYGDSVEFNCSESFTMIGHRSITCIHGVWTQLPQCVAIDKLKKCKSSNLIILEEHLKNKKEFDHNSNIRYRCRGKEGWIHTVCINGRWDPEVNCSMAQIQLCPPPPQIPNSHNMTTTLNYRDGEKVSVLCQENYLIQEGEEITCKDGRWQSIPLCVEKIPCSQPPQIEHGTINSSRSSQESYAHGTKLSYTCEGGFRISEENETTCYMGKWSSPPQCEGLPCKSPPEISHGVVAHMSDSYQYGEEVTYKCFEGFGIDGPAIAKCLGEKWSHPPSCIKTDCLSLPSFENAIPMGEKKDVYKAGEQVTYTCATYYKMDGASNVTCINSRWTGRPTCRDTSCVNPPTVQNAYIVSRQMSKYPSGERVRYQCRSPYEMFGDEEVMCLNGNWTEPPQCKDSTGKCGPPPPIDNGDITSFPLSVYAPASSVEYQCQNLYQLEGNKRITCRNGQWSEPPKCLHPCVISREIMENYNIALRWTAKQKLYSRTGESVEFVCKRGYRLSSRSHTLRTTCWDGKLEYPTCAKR
UniProt Q9UQN3, whole entry, looked up: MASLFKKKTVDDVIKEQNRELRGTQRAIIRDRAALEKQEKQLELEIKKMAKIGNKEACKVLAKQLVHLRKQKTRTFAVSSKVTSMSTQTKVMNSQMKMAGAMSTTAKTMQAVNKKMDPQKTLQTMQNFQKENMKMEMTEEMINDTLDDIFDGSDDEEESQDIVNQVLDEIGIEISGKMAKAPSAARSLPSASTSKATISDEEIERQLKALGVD
UniProt Q9NZZ3: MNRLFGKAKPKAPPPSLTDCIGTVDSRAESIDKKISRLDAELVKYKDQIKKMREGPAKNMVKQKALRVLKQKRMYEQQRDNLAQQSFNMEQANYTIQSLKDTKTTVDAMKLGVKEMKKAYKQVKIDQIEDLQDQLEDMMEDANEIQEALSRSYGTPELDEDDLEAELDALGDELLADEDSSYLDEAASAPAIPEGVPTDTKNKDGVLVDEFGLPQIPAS
UniProt Q9NX63: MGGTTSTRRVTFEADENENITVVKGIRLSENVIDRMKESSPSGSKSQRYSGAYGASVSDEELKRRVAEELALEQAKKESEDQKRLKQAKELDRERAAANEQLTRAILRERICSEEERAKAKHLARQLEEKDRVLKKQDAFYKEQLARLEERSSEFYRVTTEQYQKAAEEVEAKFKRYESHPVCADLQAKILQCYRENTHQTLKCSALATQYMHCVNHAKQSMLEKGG
UniProt Q8N2Z9: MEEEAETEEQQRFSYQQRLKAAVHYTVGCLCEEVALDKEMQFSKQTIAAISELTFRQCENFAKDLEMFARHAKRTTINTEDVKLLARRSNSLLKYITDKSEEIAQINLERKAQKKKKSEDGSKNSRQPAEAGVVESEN
UniProt Q9Y259: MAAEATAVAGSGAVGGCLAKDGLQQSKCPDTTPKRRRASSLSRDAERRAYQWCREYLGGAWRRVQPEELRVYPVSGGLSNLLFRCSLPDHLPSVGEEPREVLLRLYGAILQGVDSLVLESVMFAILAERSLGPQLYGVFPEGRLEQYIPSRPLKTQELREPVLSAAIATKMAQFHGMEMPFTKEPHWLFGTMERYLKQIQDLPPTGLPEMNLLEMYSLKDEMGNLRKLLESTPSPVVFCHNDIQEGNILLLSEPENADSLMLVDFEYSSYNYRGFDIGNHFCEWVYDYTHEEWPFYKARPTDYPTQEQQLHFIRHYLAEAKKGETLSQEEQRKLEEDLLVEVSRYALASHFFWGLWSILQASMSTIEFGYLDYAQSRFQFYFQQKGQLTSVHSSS
UniProt Q13112, whole entry, looked up: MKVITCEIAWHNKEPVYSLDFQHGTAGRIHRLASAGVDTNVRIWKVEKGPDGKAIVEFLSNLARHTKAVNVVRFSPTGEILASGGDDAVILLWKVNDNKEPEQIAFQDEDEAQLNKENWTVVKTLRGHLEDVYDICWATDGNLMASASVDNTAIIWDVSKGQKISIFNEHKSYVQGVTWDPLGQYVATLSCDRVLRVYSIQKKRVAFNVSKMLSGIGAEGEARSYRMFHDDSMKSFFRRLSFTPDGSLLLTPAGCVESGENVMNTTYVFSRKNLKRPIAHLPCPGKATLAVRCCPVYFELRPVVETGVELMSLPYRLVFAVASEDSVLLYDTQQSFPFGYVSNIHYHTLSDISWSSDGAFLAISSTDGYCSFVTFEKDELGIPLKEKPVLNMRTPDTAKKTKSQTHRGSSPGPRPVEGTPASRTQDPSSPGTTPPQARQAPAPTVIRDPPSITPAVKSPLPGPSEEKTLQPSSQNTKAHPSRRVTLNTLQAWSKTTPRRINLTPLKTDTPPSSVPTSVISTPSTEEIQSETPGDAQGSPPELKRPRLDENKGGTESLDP
UniProt Q99459: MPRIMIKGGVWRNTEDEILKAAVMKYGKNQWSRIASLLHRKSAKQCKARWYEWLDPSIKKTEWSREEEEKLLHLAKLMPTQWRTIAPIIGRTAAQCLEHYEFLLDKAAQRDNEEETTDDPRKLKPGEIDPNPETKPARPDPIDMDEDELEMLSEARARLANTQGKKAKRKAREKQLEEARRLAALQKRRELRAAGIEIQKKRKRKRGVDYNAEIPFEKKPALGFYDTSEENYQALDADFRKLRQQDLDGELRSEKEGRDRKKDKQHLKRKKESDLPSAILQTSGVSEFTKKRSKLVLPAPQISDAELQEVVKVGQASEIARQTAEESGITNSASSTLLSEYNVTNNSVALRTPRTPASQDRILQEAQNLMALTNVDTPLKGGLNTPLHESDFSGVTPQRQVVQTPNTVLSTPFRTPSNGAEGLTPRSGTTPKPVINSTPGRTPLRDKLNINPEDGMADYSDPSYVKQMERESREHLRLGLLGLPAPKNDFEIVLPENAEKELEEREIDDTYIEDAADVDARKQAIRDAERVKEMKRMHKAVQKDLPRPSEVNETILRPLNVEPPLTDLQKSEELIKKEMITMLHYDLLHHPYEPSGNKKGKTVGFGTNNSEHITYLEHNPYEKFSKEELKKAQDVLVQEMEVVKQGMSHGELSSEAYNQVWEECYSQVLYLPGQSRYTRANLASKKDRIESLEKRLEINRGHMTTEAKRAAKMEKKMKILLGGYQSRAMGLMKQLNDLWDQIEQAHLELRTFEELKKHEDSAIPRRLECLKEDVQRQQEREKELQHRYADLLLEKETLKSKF
UniProt Q9BY43: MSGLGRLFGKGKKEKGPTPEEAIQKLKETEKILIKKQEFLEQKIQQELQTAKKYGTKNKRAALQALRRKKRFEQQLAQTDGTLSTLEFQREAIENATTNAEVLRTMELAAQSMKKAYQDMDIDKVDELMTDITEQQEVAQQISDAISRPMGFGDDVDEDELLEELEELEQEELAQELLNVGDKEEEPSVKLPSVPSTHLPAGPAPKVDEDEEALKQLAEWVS
UniProt Q9H5V8, whole entry, looked up: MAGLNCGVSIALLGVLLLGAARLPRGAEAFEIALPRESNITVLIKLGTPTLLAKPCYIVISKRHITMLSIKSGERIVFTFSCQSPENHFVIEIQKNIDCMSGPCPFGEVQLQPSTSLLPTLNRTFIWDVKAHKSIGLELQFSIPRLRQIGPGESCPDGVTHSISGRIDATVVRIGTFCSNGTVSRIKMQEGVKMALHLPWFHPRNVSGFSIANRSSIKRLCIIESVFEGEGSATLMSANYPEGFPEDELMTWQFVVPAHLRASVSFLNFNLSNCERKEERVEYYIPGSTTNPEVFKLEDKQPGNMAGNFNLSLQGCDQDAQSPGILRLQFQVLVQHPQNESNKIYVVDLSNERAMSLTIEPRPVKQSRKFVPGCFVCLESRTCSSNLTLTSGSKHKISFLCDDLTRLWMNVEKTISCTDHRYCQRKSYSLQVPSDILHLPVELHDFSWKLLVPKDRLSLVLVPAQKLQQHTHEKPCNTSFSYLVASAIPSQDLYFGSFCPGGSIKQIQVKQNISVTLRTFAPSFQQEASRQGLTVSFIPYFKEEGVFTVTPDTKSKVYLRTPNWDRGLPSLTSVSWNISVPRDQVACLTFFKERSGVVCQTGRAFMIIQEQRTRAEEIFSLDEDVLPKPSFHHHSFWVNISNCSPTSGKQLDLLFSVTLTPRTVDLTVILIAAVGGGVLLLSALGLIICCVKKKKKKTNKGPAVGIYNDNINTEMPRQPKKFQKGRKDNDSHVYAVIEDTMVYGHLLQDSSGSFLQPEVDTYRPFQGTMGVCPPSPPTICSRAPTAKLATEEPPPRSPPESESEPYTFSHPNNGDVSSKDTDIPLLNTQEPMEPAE
UniProt Q5SW79: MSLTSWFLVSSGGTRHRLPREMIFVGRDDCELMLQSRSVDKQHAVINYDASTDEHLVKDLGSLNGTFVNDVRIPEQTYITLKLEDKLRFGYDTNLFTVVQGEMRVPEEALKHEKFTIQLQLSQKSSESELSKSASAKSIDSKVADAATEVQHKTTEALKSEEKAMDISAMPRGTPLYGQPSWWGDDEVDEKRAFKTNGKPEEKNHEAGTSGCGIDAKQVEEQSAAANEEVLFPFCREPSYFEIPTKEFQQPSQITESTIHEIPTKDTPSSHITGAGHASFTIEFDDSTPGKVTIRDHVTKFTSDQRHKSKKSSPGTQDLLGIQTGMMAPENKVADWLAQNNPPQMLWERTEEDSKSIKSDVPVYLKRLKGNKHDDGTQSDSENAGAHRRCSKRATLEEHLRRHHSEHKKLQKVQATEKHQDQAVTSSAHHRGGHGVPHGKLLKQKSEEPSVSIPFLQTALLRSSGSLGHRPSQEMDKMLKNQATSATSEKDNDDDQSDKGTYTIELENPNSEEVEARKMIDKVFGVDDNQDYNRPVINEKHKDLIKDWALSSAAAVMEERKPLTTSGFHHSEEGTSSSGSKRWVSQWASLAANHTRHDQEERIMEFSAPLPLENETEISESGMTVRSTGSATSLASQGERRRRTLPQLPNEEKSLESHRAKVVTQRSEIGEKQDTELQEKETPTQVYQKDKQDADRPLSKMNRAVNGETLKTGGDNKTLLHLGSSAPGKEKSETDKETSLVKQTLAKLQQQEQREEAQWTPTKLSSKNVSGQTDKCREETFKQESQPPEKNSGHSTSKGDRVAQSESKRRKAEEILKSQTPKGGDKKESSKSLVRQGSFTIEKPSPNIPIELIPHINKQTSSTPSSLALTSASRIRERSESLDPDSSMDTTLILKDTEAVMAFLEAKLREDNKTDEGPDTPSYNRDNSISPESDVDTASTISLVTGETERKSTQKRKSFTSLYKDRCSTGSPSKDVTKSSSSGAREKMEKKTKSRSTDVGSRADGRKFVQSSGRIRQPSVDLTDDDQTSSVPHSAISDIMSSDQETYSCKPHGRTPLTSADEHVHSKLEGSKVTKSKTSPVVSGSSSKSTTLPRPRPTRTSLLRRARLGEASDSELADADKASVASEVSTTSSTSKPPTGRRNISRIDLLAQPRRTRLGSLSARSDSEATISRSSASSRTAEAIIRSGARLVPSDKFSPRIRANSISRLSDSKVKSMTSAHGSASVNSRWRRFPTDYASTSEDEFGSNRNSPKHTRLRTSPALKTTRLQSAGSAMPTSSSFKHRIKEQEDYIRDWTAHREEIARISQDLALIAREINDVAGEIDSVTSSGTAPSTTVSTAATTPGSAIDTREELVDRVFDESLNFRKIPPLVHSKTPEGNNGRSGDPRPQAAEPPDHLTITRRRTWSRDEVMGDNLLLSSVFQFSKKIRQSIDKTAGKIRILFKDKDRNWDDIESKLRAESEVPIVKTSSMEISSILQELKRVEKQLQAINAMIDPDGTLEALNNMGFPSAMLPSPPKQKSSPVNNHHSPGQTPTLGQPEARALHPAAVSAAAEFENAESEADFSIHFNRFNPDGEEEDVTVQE
UniProt P42773: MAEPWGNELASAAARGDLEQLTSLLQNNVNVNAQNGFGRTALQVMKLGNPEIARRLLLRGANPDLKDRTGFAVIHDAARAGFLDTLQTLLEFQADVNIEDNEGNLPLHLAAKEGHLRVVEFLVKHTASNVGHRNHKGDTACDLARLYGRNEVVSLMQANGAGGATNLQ

What was measured:
Test in all cases: log2 fold change, soluble protein after heating vs DMSO (PISA); higher = thermal stabilisation; K562 cells, 10 uM, 30 min; active = over 0.2 and 3.5 SD of the protein, either way, in both replicates (recomputed)
[1] = compound: CN1CCN(CCOc2cc(OC3CCOCC3)c3c(Nc4c(Cl)ccc5c4OCO5)ncnc3c2)CC1 [saracatinib]
How it was run: (§1)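 K562 cells (2×10^6 cells/mL) were treated with 10 μM compound for 30 min, and aliquots were heated for 3 min over 48°C-58°C. Pooled aliquots were extracted in PBS with 0.5% NP-40 at 4°C, and the supernatant after 21,000xg for 90 min was measured by TMTpro 16plex LC-MS/MS with channel sums equalised. Reported thermal stability, relative to control samples and from duplicates, is a log2 fold change.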

[2] = compound: CN1CCN(c2nc(C3=C(c4c[nH]c5ccccc45)C(=O)NC3=O)c3ccccc3n2)CC1 [sotrastaurin]
How it was run: as §1

[3] = compound: CN1CC[C@H](c2c(O)cc(O)c3c(=O)cc(-c4ccccc4Cl)oc23)[C@H](O)C1 [alvocidib]
How it was run: as §1

[4] = compound: CN1CCc2c(c3ccccc3n2Cc2ccc(C(=O)NO)cc2)C1 [Tubastatin A]
How it was run: as §1

[5] = compound: CNC(=O)C1=CC=CC=C1NC2=NC(=NC=C2Cl)NC3=C(C=C(C=C3)N4CCOCC4)OC
How it was run: as §1

[6] = compound: CNC(=O)c1ccc(Nc2ncc(C(F)(F)F)c(NCc3nccnc3N(C)S(C)(=O)=O)n2)cc1 [defactinib]
How it was run: as §1

[7] = compound: CNCc1ccc(-c2[nH]c3cc(F)cc4c3c2CCNC4=O)cc1 [rucaparib]
How it was run: as §1

[8] = compound: CNc1nc(-c2ccc3c(N)n[nH]c3c2)cc(N2C[C@@H](C(=O)NC3CCCCC3)CC[C@H]2C)n1
How it was run: as §1

[9] = compound: COC(=O)N[C@@H](C)CNc1nccc(-c2cn(C(C)C)nc2-c2cc(Cl)cc(NS(C)(=O)=O)c2F)n1 [encorafenib]
How it was run: as §1

[10] = compound: COC(=O)[C@H](CCSC)NC(=O)C1=C(C=C(C=C1)NC[C@H](CS)N)C2=CC=CC=C2
How it was run: as §1

Row | Target | log2 fold change [1] | log2 fold change [2] | log2 fold change [3] | log2 fold change [4] | log2 fold change [5] | log2 fold change [6] | log2 fold change [7] | log2 fold change [8] | log2 fold change [9] | log2 fold change [10]
1 | CEP44 (UniProt Q9C0F1) | inactive: 0.147 | inactive: -0.176 | inactive: 0.011 | inactive: -0.018 | inactive: 0.082 | inactive: -0.104 | inactive: -0.285 | inactive: 0.019 | inactive: -0.076 | inactive: 0.177
2 | CDS2 (UniProt O95674) | inactive: 0.04 | inactive: 0.091 | inactive: 0.03 | inactive: 0.058 | inactive: -0.009 | inactive: -0.04 | inactive: -0.005 | inactive: -0.167 | inactive: -0.009 | inactive: 0.007
3 | CFH (UniProt P08603) | inactive: 0.049 | inactive: 0.002 | inactive: 0.028 | inactive: 0.05 | inactive: -0.038 | inactive: -0.016 | inactive: -0.016 | inactive: 0 | inactive: -0.012 | inactive: 0.067
4 | CHMP2B (UniProt Q9UQN3) | inactive: 0.042 | inactive: -0.025 | inactive: -0.046 | inactive: 0.011 | inactive: -0.001 | inactive: -0.012 | inactive: -0.025 | inactive: -0.03 | inactive: 0.044 | inactive: 0.023
5 | CFL2 (UniProt Q9Y281) | inactive: 0.092 | inactive: 0.021 | inactive: -0.086 | inactive: 0.036 | inactive: 0.027 | inactive: -0.028 | inactive: -0.039 | inactive: -0.041 | inactive: -0.017 | inactive: 0.006
6 | CEP192 (UniProt Q8TEP8) | inactive: -0.011 | inactive: 0.14 | inactive: 0.089 | inactive: 0.156 | inactive: -0.083 | inactive: -0.007 | inactive: -0.005 | inactive: -0.034 | inactive: -0.213 | inactive: 0.214
7 | CHMP5 (UniProt Q9NZZ3) | inactive: 0.026 | inactive: 0.018 | inactive: 0.021 | inactive: -0.012 | inactive: -0.059 | inactive: -0.003 | inactive: -0.038 | inactive: -0.012 | inactive: -0.022 | inactive: 0.014
8 | CHCHD3 (UniProt Q9NX63) | inactive: -0.009 | inactive: 0.024 | inactive: -0.023 | inactive: -0.022 | inactive: 0.021 | inactive: -0.02 | inactive: -0.056 | inactive: -0.011 | inactive: -0.018 | inactive: 0.029
9 | CENPF (UniProt P49454) | inactive: 0.029 | inactive: -0.098 | inactive: -0.005 | inactive: 0.072 | inactive: 0.014 | inactive: -0.023 | inactive: 0.07 | inactive: -0.004 | inactive: 0.034 | inactive: 0.072
10 | CENPS (UniProt Q8N2Z9) | inactive: -0.064 | inactive: 0.027 | inactive: -0.008 | inactive: -0.089 | inactive: -0.064 | inactive: -0.027 | inactive: -0.097 | inactive: -0.011 | inactive: 0.076 | inactive: 0.061
11 | CHKB (UniProt Q9Y259) | inactive: 0.066 | inactive: 0.031 | inactive: -0.017 | inactive: -0.001 | inactive: -0.048 | inactive: -0.09 | inactive: -0.023 | inactive: -0.032 | inactive: 0.001 | inactive: 0.021
12 | CDC73 (UniProt Q6P1J9) | inactive: 0.024 | inactive: 0.331 | inactive: 0.088 | inactive: 0.085 | inactive: -0.016 | inactive: -0.05 | inactive: 0.183 | inactive: 0.041 | inactive: 0.002 | inactive: 0.128
13 | CDCA5 (UniProt Q96FF9) | inactive: -0.033 | inactive: -0.091 | inactive: -0.195 | inactive: 0.051 | inactive: -0.055 | inactive: -0.078 | inactive: -0.016 | inactive: 0.05 | inactive: 0.072 | inactive: 0.009
14 | CHMP1B (UniProt Q7LBR1) | inactive: 0.02 | inactive: -0.005 | inactive: -0.018 | inactive: -0.021 | inactive: -0.022 | inactive: 0.014 | inactive: -0.038 | inactive: -0.059 | inactive: 0 | inactive: 0.058
15 | CFAP298 (UniProt P57076) | inactive: -0.238 | inactive: -0.038 | inactive: 0.054 | inactive: 0.328 | inactive: 0.026 | inactive: 0 | inactive: 0.4 | inactive: 0.11 | inactive: 0.127 | inactive: -0.17
16 | CEP250 (UniProt Q9BV73) | inactive: 0.041 | inactive: -0.062 | inactive: -0.071 | inactive: -0.021 | inactive: 0.071 | inactive: -0.027 | inactive: 0.013 | inactive: 0.031 | inactive: -0.021 | inactive: -0.13
17 | CDC42EP4 (UniProt Q9H3Q1) | inactive: 0.108 | inactive: -0.057 | inactive: -0.001 | inactive: -0.066 | inactive: -0.045 | inactive: -0.091 | inactive: 0.109 | inactive: -0.216 | inactive: 0.042 | inactive: 0.056
18 | CHEK2 isoform 9 (UniProt O96017) | inactive: 0.037 | inactive: 0.035 | inactive: -0.103 | inactive: 0.002 | inactive: -0.161 | inactive: -0.01 | inactive: -0.015 | inactive: 0.008 | inactive: 0.032 | inactive: 0.009
19 | CHAF1B (UniProt Q13112) | inactive: 0.011 | inactive: 0.007 | inactive: 0.019 | inactive: -0.027 | inactive: -0.069 | inactive: 0.003 | inactive: -0.021 | inactive: -0.055 | inactive: -0.028 | inactive: 0.008
20 | CDC5L (UniProt Q99459) | inactive: -0.055 | inactive: 0.096 | inactive: 0.004 | inactive: 0.11 | inactive: -0.156 | inactive: -0.109 | inactive: 0.242 | inactive: 0.189 | inactive: 0.21 | inactive: 0.163
21 | CHM (UniProt P24386) | inactive: 0.116 | inactive: -0.001 | inactive: -0.092 | inactive: -0.059 | inactive: 0.107 | inactive: -0.006 | inactive: 0.009 | inactive: -0.052 | inactive: -0.032 | inactive: 0.06
22 | CHMP4A isoform 2 (UniProt Q9BY43) | inactive: 0.014 | inactive: 0.027 | inactive: 0.082 | inactive: -0.001 | inactive: -0.053 | inactive: 0.013 | inactive: -0.046 | inactive: -0.027 | inactive: -0.05 | inactive: 0.028
23 | CDK19 (UniProt Q9BWU1) | inactive: 0.006 | inactive: 0.035 | active: 0.585 | inactive: -0.104 | inactive: -0.209 | inactive: 0.046 | inactive: 0.345 | inactive: 0.03 | inactive: -0.086 | inactive: -0.005
24 | CDCP1 (UniProt Q9H5V8) | inactive: 0.042 | inactive: 0.028 | inactive: -0.027 | inactive: 0.012 | inactive: -0.083 | inactive: -0.056 | inactive: -0.032 | inactive: -0.012 | inactive: 0.034 | inactive: -0.009
25 | CENPH (UniProt Q9H3R5) | inactive: -0.147 | inactive: -0.055 | inactive: 0.083 | inactive: 0.068 | inactive: 0.027 | inactive: -0.216 | inactive: 0.197 | inactive: -0.004 | inactive: 0.084 | inactive: -0.283
26 | CDK9 isoform 2 (UniProt P50750) | inactive: -0.028 | inactive: -0.018 | active: 0.405 | inactive: 0.01 | inactive: -0.07 | inactive: 0.03 | inactive: 0.084 | inactive: 0.036 | inactive: 0.079 | inactive: -0.091
27 | CEP97 isoform 2 (UniProt Q8IW35) | inactive: -0.053 | inactive: -0.057 | inactive: 0.016 | inactive: 0.118 | inactive: 0.009 | inactive: -0.042 | inactive: 0.144 | inactive: -0.11 | inactive: -0.038 | inactive: -0.07
28 | CEP170 (UniProt Q5SW79) | inactive: -0.035 | inactive: -0.022 | inactive: 0.068 | inactive: 0.01 | inactive: -0.121 | inactive: 0.016 | inactive: 0.224 | inactive: 0.144 | inactive: 0.119 | inactive: 0.036
29 | CDKN2C (UniProt P42773) | inactive: -0.083 | inactive: -0.013 | inactive: -0.189 | inactive: -0.08 | inactive: -0.017 | inactive: 0.041 | inactive: -0.031 | inactive: 0.083 | inactive: -0.026 | inactive: -0.066
30 | CHD6 (UniProt Q8TD26) | inactive: 0.411 | inactive: 0.353 | inactive: -0.043 | inactive: -0.188 | inactive: 0.242 | inactive: -0.017 | inactive: 0.042 | inactive: 0.001 | inactive: 0.01 | inactive: 0.235

From no. 28 to 29, as listed above:
Row | Target | log2 fold change [1] | log2 fold change [2] | log2 fold change [3] | log2 fold change [4] | log2 fold change [5] | log2 fold change [6] | log2 fold change [7] | log2 fold change [8] | log2 fold change [9] | log2 fold change [10]
28 | CEP170 (UniProt Q5SW79) | inactive: -0.035 | inactive: -0.022 | inactive: 0.068 | inactive: 0.01 | inactive: -0.121 | inactive: 0.016 | inactive: 0.224 | inactive: 0.144 | inactive: 0.119 | inactive: 0.036
29 | CDKN2C (UniProt P42773) | inactive: -0.083 | inactive: -0.013 | inactive: -0.189 | inactive: -0.08 | inactive: -0.017 | inactive: 0.041 | inactive: -0.031 | inactive: 0.083 | inactive: -0.026 | inactive: -0.066
